Results published in the supplement of paper PMC4604168 (melanoma cell lines).
Some of the results follow. Many values rest on one well or one pass, so single values are uncertain.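 The apoptosis fraction was the count of cleaved-PARP antibody-stained nuclei relative to all DNA-stained nuclei, imaged in 1,536-well plates. Screening doses were set so most cells survived, and baseline and induced cleaved-PARP levels vary greatly across cell lines.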

Columns and labels:
Assay in all cases: cleaved PARP positive nuclei fraction relative to DMSO control; melanoma cells; higher = more apoptosis
Conditions in all cases: library dose: low library concentration; 72 h
[1] = test system: MZ2-MEL
[2] = test system: MeWo
[3] = test system: RPMI7951
[4] = test system: RVH-421
[5] = test system: SkMel28
[6] = test system: SkMel2
[7] = test system: SkMel30
[8] = test system: SkMel5
[9] = test system: UACC257
[10] = test system: UACC62
[11] = test system: WM115
[12] = test system: WM1716
[13] = test system: WM1745
[14] = test system: WM3526
[15] = test system: WM3619
[16] = test system: WM451Lu

SMILES | cleaved PARP positive nuclei fraction [1] | cleaved PARP positive nuclei fraction [2] | cleaved PARP positive nuclei fraction [3] | cleaved PARP positive nuclei fraction [4] | cleaved PARP positive nuclei fraction [5] | cleaved PARP positive nuclei fraction [6] | cleaved PARP positive nuclei fraction [7] | cleaved PARP positive nuclei fraction [8] | cleaved PARP positive nuclei fraction [9] | cleaved PARP positive nuclei fraction [10] | cleaved PARP positive nuclei fraction [11] | cleaved PARP positive nuclei fraction [12] | cleaved PARP positive nuclei fraction [13] | cleaved PARP positive nuclei fraction [14] | cleaved PARP positive nuclei fraction [15] | cleaved PARP positive nuclei fraction [16]
NC(=O)c1ccc(N(C(N)=O)c2c(F)cccc2F)nc1-c1ccc(F)cc1F + Cc1cc(SCc2sc(-c3ccc(C(F)(F)F)c(F)c3)nc2C)ccc1OCC(=O)O [GW0742] (first compound 0.4 µM, partner dose 2 µM) | 183% | 192% | 34.7% | 141% | 42.5% | 60.5% | 32.7% | 77.5% | 137% | 172% | 270% | 93.1% | 81.5% | 67.5% | 94.1% | 62.8%
Cn1cc(C2=C(c3cn(C4CCN(Cc5ccccn5)CC4)c4ccccc34)C(=O)NC2=O)c2ccccc21 [Enzastaurin] + CN(NC(=O)CC(=O)NN(C)C(=S)c1ccccc1)C(=S)c1ccccc1 [STA4783] (first compound 0.8 µM, partner dose 0.006 µM) | 97.2% | 152% | 156% | 81.2% | 54.4% | 26.3% | 58.2% | 129% | 42.2% | 133% | 31.9% | 261% | 336% | 35.8% | 210% | 49.8%
Cn1cc(C2=C(c3cn(C4CCN(Cc5ccccn5)CC4)c4ccccc34)C(=O)NC2=O)c2ccccc21 [Enzastaurin] + NC(=O)Nc1cc(-c2cccc(F)c2)sc1C(=O)N[C@H]1CCCNC1 [AZD7762] (first compound 0.8 µM, partner dose 0.02 µM) | 56.6% | 133% | 89.5% | 37.2% | 55.8% | 125% | 110% | 120% | 67.1% | 240% | 141% | 139% | 86% | 48.5% | 115% | 58.8%
CC(=O)O[C@@]12CO[C@@H]1C[C@H](O)[C@@]1(C)C(=O)[C@H](O)C3=C(C)[C@@H](OC(=O)[C@H](O)[C@@H](NC(=O)OC(C)(C)C)c4ccccc4)C[C@@](O)([C@@H](OC(=O)c4ccccc4)[C@H]21)C3(C)C [Docetaxel] + O=C(Oc1ccc([N+](=O)[O-])cc1)N1CCC(C(O)(c2ccc3c(c2)OCO3)c2ccc3c(c2)OCO3)CC1 [JZL184] (first compound 0.0001 µM, partner dose 1 µM) | 522% | 1430% | 210% | 51.1% | 1020% | 1050% | 93% | 89% | 1310% | 609% | 577% | 421% | 188% | 86.9% | 177% | 72.7%
CC[C@]1(O)C[C@H]2CN(CCc3c([nH]c4ccccc34)[C@@](C(=O)OC)(c3cc4c(cc3OC)N(C=O)[C@H]3[C@@](O)(C(=O)OC)[C@H](OC(C)=O)[C@]5(CC)C=CCN6CC[C@]43[C@@H]65)C2)C1 [vincristine] + C/C(O)=C(\C#N)C(=O)Nc1cc(Br)ccc1Br [LFM-A13] (first compound 0.0001 µM, partner dose 2 µM) | 135% | 103% | 85.9% | 38.4% | 337% | 149% | 341% | 87% | 256% | 333% | 1040% | 527% | 220% | 91.4% | 180% | 146%
Cn1cc(C2=C(c3cn(C4CCN(Cc5ccccn5)CC4)c4ccccc34)C(=O)NC2=O)c2ccccc21 [Enzastaurin] + COc1ccc(-c2ccc3c(N4CCOCC4)nc(N4C[C@@H](C)O[C@@H](C)C4)nc3n2)cc1CO [KU0063794] (first compound 0.8 µM, partner dose 0.02 µM) | 70.7% | 84.4% | 169% | 140% | 88.3% | 145% | 42.5% | 74.4% | 34.2% | 201% | 109% | 35.5% | 84.8% | 158% | 102% | 34%
O=c1[nH]nc(Sc2ncc([N+](=O)[O-])s2)n1-c1ccc2c(c1)OCCO2 + Cc1cc(SCc2sc(-c3ccc(C(F)(F)F)c(F)c3)nc2C)ccc1OCC(=O)O [GW0742] (first compound 0.2 µM, partner dose 2 µM) | 98.1% | 38.5% | 55.2% | 202% | 129% | 81.3% | 15.4% | 39.1% | 181% | 325% | 129% | 45.8% | 79.6% | 192% | 9.26% | 61.6%
CS(=O)(=O)c1ccc(C(=O)Nc2ccc(Cl)c(-c3ccccn3)c2)c(Cl)c1 [vismodegib] + Cc1cc(SCc2sc(-c3ccc(C(F)(F)F)c(F)c3)nc2C)ccc1OCC(=O)O [GW0742] (first compound 1 µM, partner dose 2 µM) | 93.2% | 103% | 34.3% | 56.4% | 94.7% | 79.7% | 88.2% | 31.1% | 96.8% | 93.9% | 101% | 67.1% | 84.9% | 78.8% | 74.4% | 154%
N.N.[Cl][Pt][Cl] [cisplatin] + O=C1NC(=O)/C(=C/c2ccc(-c3ccc(F)cc3O)o2)S1 [AS252424] (first compound 1.6 µM, partner dose 1 µM) | 71.6% | 169% | 71.4% | 128% | 98.6% | 196% | 362% | 78.7% | 83.4% | 469% | 51.9% | 69.1% | 99.1% | 85.1% | 79.1% | 85%
Cn1cc(C2=C(c3cn(C4CCN(Cc5ccccn5)CC4)c4ccccc34)C(=O)NC2=O)c2ccccc21 [Enzastaurin] + NCC(=O)Nc1ccc(-n2nc(C(F)(F)F)cc2-c2ccc3c(ccc4ccccc43)c2)cc1 [OSU03012] (first compound 0.8 µM, partner dose 1 µM) | 49.5% | 52.1% | 111% | 100% | 62.9% | 111% | 107% | 71.8% | 84.7% | 51.7% | 153% | 47% | 103% | 88.3% | 89% | 58.5%
Cn1cc(C2=C(c3cn(C4CCN(Cc5ccccn5)CC4)c4ccccc34)C(=O)NC2=O)c2ccccc21 [Enzastaurin] + C/C(O)=C(\C#N)C(=O)Nc1cc(Br)ccc1Br [LFM-A13] (first compound 0.8 µM, partner dose 2 µM) | 79.1% | 76.7% | 159% | 271% | 225% | 109% | 49.5% | 83.6% | 323% | 58.2% | 78.3% | 85.7% | 224% | 40.9% | 101% | 102%
Cn1cnc2c(F)c(Nc3ccc(Br)cc3Cl)c(C(=O)NOCCO)cc21 [selumetinib] + C/C(O)=C(\C#N)C(=O)Nc1cc(Br)ccc1Br [LFM-A13] (first compound 0.015 µM, partner dose 2 µM) | 285% | 148% | 103% | 83.8% | 361% | 166% | 81.8% | 217% | 211% | 206% | 119% | 90.1% | 94.6% | 252% | 113% | 329%
O=C(O)[C@@H]1[O][Sb](=[O])([O][Sb]2(=[O])[O][C@H]([C@H](O)CO)[C@H](O)[C@H](C(=O)O)[O]2)[O][C@H]([C@H](O)CO)[C@@H]1O (some centres undefined) [stibogluconate] + Cc1cc(SCc2sc(-c3ccc(C(F)(F)F)c(F)c3)nc2C)ccc1OCC(=O)O [GW0742] (first compound 2 µM, partner dose 2 µM) | 60.9% | 122% | 145% | 84.6% | 55.3% | 106% | 185% | 262% | 63.9% | 66.7% | 123% | 24.4% | 68.9% | 144% | 83.2% | 22.5%
Cc1ccc(Nc2nccc(N(C)c3ccc4c(C)n(C)nc4c3)n2)cc1S(N)(=O)=O [Pazopanib] + Cc1cc(SCc2sc(-c3ccc(C(F)(F)F)c(F)c3)nc2C)ccc1OCC(=O)O [GW0742] (first compound 0.4 µM, partner dose 2 µM) | 109% | 63.2% | 39% | 64.2% | 54.8% | 48.1% | 56.4% | 97.8% | 101% | 65% | 148% | 55.6% | 99.2% | 87% | 109% | 72.7%
Cn1c(=O)n(-c2ccc(C(C)(C)C#N)cc2)c2c3cc(-c4cnc5ccccc5c4)ccc3ncc21 + C[As](C)SC[C@H](NC(=O)CC[C@H](N)C(=O)O)C(=O)NCC(=O)O [Darinaparsin] (first compound 0.004 µM, partner dose 0.4 µM) | 103% | 581% | 177% | 141% | 59% | 128% | 119% | – | – | 169% | 165% | 91.8% | 87.8% | 64.5% | 99.2% | 58.5%
COc1cc([C@@H]2c3cc4c(cc3[C@@H](O[C@@H]3O[C@@H]5CO[C@@H](C)O[C@H]5[C@H](O)[C@H]3O)[C@H]3COC(=O)[C@H]23)OCO4)cc(OC)c1O [etoposide] + Cc1cc(SCc2sc(-c3ccc(C(F)(F)F)c(F)c3)nc2C)ccc1OCC(=O)O [GW0742] (first compound 0.02 µM, partner dose 2 µM) | 191% | 137% | 29.9% | 167% | 15.9% | 105% | 45.9% | 138% | 91.8% | 70.4% | 83.7% | – | 95.7% | 130% | – | 117%
NC(=O)c1ccc(N(C(N)=O)c2c(F)cccc2F)nc1-c1ccc(F)cc1F + C/C(O)=C(\C#N)C(=O)Nc1cc(Br)ccc1Br [LFM-A13] (first compound 0.4 µM, partner dose 2 µM) | 52.8% | 76.6% | 80.2% | 71.8% | 168% | 101% | 120% | 79.5% | 65.1% | 138% | 72.5% | 52.5% | 90.4% | 84.4% | 101% | 73.4%
Cc1cc(Nc2cc(N3CCN(C)CC3)nc(Sc3ccc(NC(=O)C4CC4)cc3)n2)n[nH]1 [Tozasertib] + C/C(O)=C(\C#N)C(=O)Nc1cc(Br)ccc1Br [LFM-A13] (first compound 0.006 µM, partner dose 2 µM) | 119% | 265% | 84.9% | 170% | 168% | 97% | 148% | 161% | 83.2% | 218% | 155% | 111% | 96.5% | 175% | 112% | 197%

Part of the list above, in markdown:

| SMILES | cleaved PARP positive nuclei fraction [1] | cleaved PARP positive nuclei fraction [2] | cleaved PARP positive nuclei fraction [3] | cleaved PARP positive nuclei fraction [4] | cleaved PARP positive nuclei fraction [5] | cleaved PARP positive nuclei fraction [6] | cleaved PARP positive nuclei fraction [7] | cleaved PARP positive nuclei fraction [8] | cleaved PARP positive nuclei fraction [9] | cleaved PARP positive nuclei fraction [10] | cleaved PARP positive nuclei fraction [11] | cleaved PARP positive nuclei fraction [12] | cleaved PARP positive nuclei fraction [13] | cleaved PARP positive nuclei fraction [14] | cleaved PARP positive nuclei fraction [15] | cleaved PARP positive nuclei fraction [16] |
| --- | --- | --- | --- | --- | --- | --- | --- | --- | --- | --- | --- | --- | --- | --- | --- | --- |
| Cn1c(=O)n(-c2ccc(C(C)(C)C#N)cc2)c2c3cc(-c4cnc5ccccc5c4)ccc3ncc21 + C[As](C)SC[C@H](NC(=O)CC[C@H](N)C(=O)O)C(=O)NCC(=O)O [Darinaparsin] (first compound 0.004 µM, partner dose 0.4 µM) | 103% | 581% | 177% | 141% | 59% | 128% | 119% | – | – | 169% | 165% | 91.8% | 87.8% | 64.5% | 99.2% | 58.5% |
| COc1cc([C@@H]2c3cc4c(cc3[C@@H](O[C@@H]3O[C@@H]5CO[C@@H](C)O[C@H]5[C@H](O)[C@H]3O)[C@H]3COC(=O)[C@H]23)OCO4)cc(OC)c1O [etoposide] + Cc1cc(SCc2sc(-c3ccc(C(F)(F)F)c(F)c3)nc2C)ccc1OCC(=O)O [GW0742] (first compound 0.02 µM, partner dose 2 µM) | 191% | 137% | 29.9% | 167% | 15.9% | 105% | 45.9% | 138% | 91.8% | 70.4% | 83.7% | – | 95.7% | 130% | – | 117% |
| NC(=O)c1ccc(N(C(N)=O)c2c(F)cccc2F)nc1-c1ccc(F)cc1F + C/C(O)=C(\C#N)C(=O)Nc1cc(Br)ccc1Br [LFM-A13] (first compound 0.4 µM, partner dose 2 µM) | 52.8% | 76.6% | 80.2% | 71.8% | 168% | 101% | 120% | 79.5% | 65.1% | 138% | 72.5% | 52.5% | 90.4% | 84.4% | 101% | 73.4% |
